18 compounds from PubChem BioAssay can be followed below.

The other results are listed elsewhere or left out. The main result of the screen is listed elsewhere. These columns were measured beside it and carry no call.

This test is described as follows: PubChem AID 1586. As to conditions: yeast two-hybrid polyglutamine protein interaction, reporter readout; measured here: averaged growth delta OD.
Take `Cc1ccc(O)cc1`: the signal change (36 h minus 0 h) is 0.127.
As for `O=C(O)c1cccnc1Nc1cccc(C(F)(F)F)c1`, the figure is 0.035; as for `CCOC(=O)[C@H](CCc1ccccc1)N[C@@H](C)C(=O)N1Cc2ccccc2C[C@H]1C(=O)O`, 0.109.
To `CN1C2CC(OC(=O)[C@H](CO)c3ccccc3)C[C@H]1[C@H]1OC21` (stereo partly drawn) belongs 0.145; to `CCN(CC)CCOC(=O)C(Cc1cccc2ccccc12)CC1CCCO1` (stereo not drawn), 0.2; to `COC(=O)[C@H]1[C@H]2C[C@@H]3c4[nH]c5cc(OC)ccc5c4CCN3C[C@H]2C[C@@H](OC(=O)c2cc(OC)c(OC)c(OC)c2)[C@@H]1OC`, 0.313.
To `CC(C)OC(=O)C(C)(C)Oc1ccc(C(=O)c2ccc(Cl)cc2)cc1` belongs 0.15.
In turn, `Oc1ccc(Cl)c2cccnc12` came in with a signal change (36 h minus 0 h) of 0.2.
To `CN1CCOC(c2ccccc2)c2ccccc2C1` (stereo not drawn) belongs 0.0554; to `C[C@]12CCC3c4ccc(OS(=O)(=O)O)cc4CCC3C1CC[C@H]2O` (stereo partly drawn), 0.225; to `Nc1nc2ncc(CNc3ccc(C(=O)N[C@@H](CCC(=O)O)C(=O)O)cc3)nc2c(=O)[nH]1`, 0.255.
In the case of `NNc1nncc2ccccc12`, the signal change (36 h minus 0 h) is 0.0557.
As for `COc1c2occc2cc2ccc(=O)oc12`, the figure is 0.0927; as for `CC(C)COCC(CN(Cc1ccccc1)c1ccccc1)N1CCCC1` (stereo not drawn), 0.0803.
As for `CO[C@@]1(NC(=O)C(C(=O)O)c2ccc(O)cc2)C(=O)N2C(C(=O)O)=C(CSc3nnnn3C)CO[C@@H]21` (stereo partly drawn), the figure is 0.172; as for `Nc1ccc(S(=O)(=O)c2ccc(N)cc2)cc1`, 0.144; as for `O=C1NS(=O)(=O)c2ccccc21`, 0.147.
Consider `O=C1O[C@@H](CO)[C@H](O)[C@@H](O)[C@@H]1O`, for which the signal change (36 h minus 0 h) was found to be 0.00085.
